Assay results: the supplement of paper PMC3334620
In all, about 33,000 sequences were measured (“E-score (-0.5 to 0.5)”: median about -0.016, highest 2% from about 0.3 on). The list shows a part of the results.

Target: T1, Yer184c (UniProt P39961)
T1 sequence: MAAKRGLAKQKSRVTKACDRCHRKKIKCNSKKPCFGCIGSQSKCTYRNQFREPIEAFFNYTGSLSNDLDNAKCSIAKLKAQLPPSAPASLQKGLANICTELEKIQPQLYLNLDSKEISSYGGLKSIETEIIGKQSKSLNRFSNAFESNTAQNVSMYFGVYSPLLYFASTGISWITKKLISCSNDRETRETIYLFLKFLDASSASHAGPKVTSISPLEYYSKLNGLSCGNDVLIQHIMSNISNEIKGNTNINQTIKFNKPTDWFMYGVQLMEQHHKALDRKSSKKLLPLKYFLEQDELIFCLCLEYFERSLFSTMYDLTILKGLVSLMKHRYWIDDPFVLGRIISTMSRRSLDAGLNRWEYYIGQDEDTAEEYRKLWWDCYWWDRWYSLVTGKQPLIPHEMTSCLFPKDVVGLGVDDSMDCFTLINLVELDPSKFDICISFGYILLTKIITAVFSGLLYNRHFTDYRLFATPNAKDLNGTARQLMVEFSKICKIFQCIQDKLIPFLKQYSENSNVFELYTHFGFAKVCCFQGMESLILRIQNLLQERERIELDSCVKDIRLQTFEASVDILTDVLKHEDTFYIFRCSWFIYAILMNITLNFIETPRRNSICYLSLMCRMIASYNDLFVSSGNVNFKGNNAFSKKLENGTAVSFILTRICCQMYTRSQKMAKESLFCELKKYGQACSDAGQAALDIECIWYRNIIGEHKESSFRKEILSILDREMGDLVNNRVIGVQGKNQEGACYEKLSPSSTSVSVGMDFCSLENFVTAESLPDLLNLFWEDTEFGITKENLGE
Assay: PBM E-score (8-mer binding enrichment) (E-score (-0.5 to 0.5)); higher = stronger / more preferred TF binding
Details: protein concentration: 100 nM; construct: GST-full length
Experimental: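 Universal 'all 10-mer' protein binding microarrays (Agilent AMADID 015681) probed with GST-tagged S. cerevisiae TFs (full-length or DBD) made by in vitro transcription/translation (PURExpress), about 100-200 nM. Bound TF was detected with fluorescent anti-GST. Each ungapped 8-mer (which stands for itself and its reverse complement) is scored by the PBM enrichment score (E-score), a modified Wilcoxon-Mann-Whitney statistic from -0.5 to +0.5, computed with the Universal PBM Analysis Suite. Scale: above 0.35 generally sequence-specific binding.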

Sequence	PBM E-score
GTACCGAA	0.227
CGCACCAA	-0.0563
ACGAATTC	0.113
GGGATCGA	-0.107
ACCGTACC	-0.158
CTGGGAGA	-0.185
CAGCCCCC	-0.341
AGCTGGGG	-0.201
CCGCTCAA	-0.0707
ATCAGCGC	0.144
GCCTCCGA	-0.0578
AGACACTG	-0.148
CTGCATCA	-0.108
AAAGGGGT	-0.251
CCTACTTC	-0.0325
AACAACGG	0.175
ATATACAC	0.0215
CTAAATAG	0.0848
GATCGGGA	0.00096
AGTCAATG	-0.217
AGGGGAAG	-0.327
CCTGTGTC	-0.191
CGTAGTAC	-0.0796
CAGGTGGC	-0.248
ATAGTTGC	0.0557

Sequence	PBM E-score
ACTTGAAT	0.103
ACCAGCCG	0.194
TACAGAAA	0.244
CGTAGTCA	-0.118
CGACCTCC	0.0181
CCAGTTCA	0.0266
GAGGATAC	-0.0622
CCTCAGTA	-0.0582
AATCATTA	-0.00277
CAAGACTC	-0.0566
CGGCACCC	0.048
CCGGTCAA	0.214
CATCGCGA	0.0727
GGAGGAAC	0.122
CGGTCAAA	0.222
ATAAGGCG	0.0307
AGCTCAAA	0.235
CGACGTGA	-0.0585
AGGCTTGA	-0.108
ATCTCAAG	0.0203
TTACGAAA	0.212
AAGCCATT	0.118
AACTATTG	0.0686
AGTAACCC	-0.13
CCCAAAGC	-0.161

Sequence	PBM E-score
CCTCTCCG	-0.0361
AGTGACAA	-0.091
AGTAGGCA	0.049
TCACGACA	0.0142
ACGACTCG	-0.0983
CTCGGGTC	0.195
AGGAGGCC	-0.311
GAATATAA	0.085
CGGTAATA	0.234
ATAGCTTC	-0.00863
GATACTAC	0.0958
ATCTGACA	0.0044
AGCTCTCG	-0.0555
CCATGTAG	-0.139
AATGCCCT	-0.213
AAGAAAGA	0.0749
CTAGAAAC	-0.0327
GGTGCCGA	0.266
ACGGTCGG	0.129
TGATCGCA	-0.0623
AGATGAGG	-0.245
AGGAGTGC	-0.0807
GAAACCTC	-0.0878
CGTATCTA	0.0415
CAGGTAAC	-0.0858

Sequence	PBM E-score
ACAGAAAC	0.156
CCCTCAAC	-0.195
CGATATCG	0.174
ATCCTGTG	-0.14
GATAGACA	-0.0833
CCAGTCGG	-0.0574
ATGGGCGG	-0.0343
AATAATTA	0.299
ATTAGTAC	-0.0973
AAGTATGG	-0.024
CTAAGATC	0.0575
CCCAATAG	-0.222
AGCGTTTC	-0.0391
GGTAGGTA	-0.127
GCGTCCGA	0.0443
CCACATTC	-0.187
GCAGATCC	-0.0395
AGGGGGCC	-0.305
CATTAGCA	-0.0101
TGACCTAA	0.0529
AGGTGACT	-0.0736
CTTTCCGC	0.187
ATTCCAAC	0.0142
GCCCGGCC	0.242
AAACATTC	-0.11

Individual results from the entries so far.
PBM E-score, GGGATCGA is entered as -0.107
PBM E-score, CATCGCGA is entered as 0.0727
PBM E-score, CTTTCCGC is entered as 0.187

Remaining list, next part:

Sequence	PBM E-score
GGCGGATA	0.0758
CGTGCGTA	0.0195
GCCAACCA	-0.155
AGATTAGG	-0.068
AGCCGGAA	0.423
ACGTAGCA	-0.116
CGACGACC	-0.0427
AAGGTTAA	0.0692
CGCCTTCC	-0.121
AGCCTTTG	-0.231
AACGGAAT	0.365
ACAGCCGA	0.0776
CGAGCACA	0.205
GAATGTAA	0.137
CGCGCTAA	0.162
TAATAACA	0.108
GCCATGTA	-0.174
ACGATCCA	-0.0627
CAGTAATC	-0.193
AGACAAAG	0.0298
AACTTTAT	0.129
ATTTTACG	0.214
CGAATGAG	0.199
ACTGACAT	0.0267
CCTCTAAC	-0.0421

Sequence	PBM E-score
GGCTAAAA	0.00039
AGACGAGA	-0.0292
ATAGATCC	0.0533
GCAATGCC	-0.00979
CCACGTAA	-0.153
ACCGGATC	0.229
ATATTCAA	0.207
GGACAAGA	0.0367
CCTAAGAA	0.0491
GTCCCCCA	-0.319
CCACTCCG	0.0662
GTATTGGA	-0.0773
GATTGAGA	0.192
AAGGTTGG	-0.24
CTTAGTCA	-0.0786
AAGCTACG	-0.0572
AACGATAC	-0.00121
AATTAGAT	0.185
GCATCGCA	-0.28
GCCGAAAC	0.34
GATAGTCC	-0.078
TAGTTTAA	0.15
CATGCATG	-0.267
AGTGGCCA	-0.185
AACTCATT	-0.00667

Sequence	PBM E-score
CTAAGTAG	-0.0328
AGTACCGG	0.19
AGAATACC	0.0834
GACCGGGC	0.149
GAGGTCGC	-0.165
CGAGACTC	-0.145
GCGTAGCA	-0.0754
TAACCCTA	-0.181
ACCGCCGT	0.031
GCTCCCCA	-0.44
CTTGGGCA	0.0339
ACCCTGCA	-0.0756
ATGGCACG	-0.212
CAACATGG	-0.243
ATACGTAT	0.257
AACGATTA	0.00114
ATCGGCGA	0.128
ATAGATTC	0.0333
GGGACGTA	-0.167
AAAAGTGT	-0.172
AATTACCA	0.139
CGCTTACA	-0.0381
